Data as given in PubChem BioAssay AID1508597 (Cure First, 2020)

Aim: 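Knock-downs altering ovarian cancer cell survival with or without PARP inhibitor rucaparib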 (primary screen)
Cells: human ovarian carcinoma lines grown from tumours: OCI-P5x (papillary serous) and OCI-C5x (clear cell)
Reagent: siRNA pool against human genes, 1.25 pmol siRNA per well
Time to read-out: 72 h or 96 h, depending on the cell culture
Challenge: rucaparib 20 µM (about IC30) or vehicle, present until read-out
Read-out: 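ATP luminescence measured at 72 or 96 h according to the culture, then normalised and expressed as percent viability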
Reading the numbers: viability, normalised: higher = more viable cells remaining
Hit rule: 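Active when normalised viability falls below 80 percent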
Calls: active = viability under 80%; inactive = viability 80% or more
In all, the deposit lists about 2,100 reagents; below is a part drawn at random. 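Calls flag viability under 80% in either arm, not effects specific to rucaparib; the reference for percent is not stated.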 Reagent sequences are not shown. Not stated in the record: the 100% reference.

Gene,rucaparib or vehicle,cell line,technical replicate,"viability, normalised (%)",Outcome
EPHA7,Rucaparib,OCI-C5x (clear cell),1,68,active
EPHA7,Rucaparib,OCI-C5x (clear cell),2,64.1,active
EPHA7,Rucaparib,OCI-C5x (clear cell),3,59,active
EPHA7,Rucaparib,OCI-P5x (serous),1,97.5,inactive
EPHA7,Rucaparib,OCI-P5x (serous),2,87.6,inactive
EPHA7,Rucaparib,OCI-P5x (serous),3,86.8,inactive
EPHA7,Vehicle,OCI-C5x (clear cell),1,79.9,active
EPHA7,Vehicle,OCI-C5x (clear cell),2,64.5,active
EPHA7,Vehicle,OCI-C5x (clear cell),3,89.1,inactive
EPHA7,Vehicle,OCI-P5x (serous),1,82,inactive
EPHA7,Vehicle,OCI-P5x (serous),2,104,inactive
EPHA7,Vehicle,OCI-P5x (serous),3,98.9,inactive
PDE7B,Rucaparib,OCI-C5x (clear cell),1,63.8,active
PDE7B,Rucaparib,OCI-C5x (clear cell),2,53.9,active
PDE7B,Rucaparib,OCI-C5x (clear cell),3,58.8,active
PDE7B,Rucaparib,OCI-P5x (serous),1,62.2,active
PDE7B,Rucaparib,OCI-P5x (serous),2,66.8,active
PDE7B,Rucaparib,OCI-P5x (serous),3,67.3,active
PDE7B,Vehicle,OCI-C5x (clear cell),1,53.9,active
PDE7B,Vehicle,OCI-C5x (clear cell),2,72.8,active
PDE7B,Vehicle,OCI-C5x (clear cell),3,44.6,active
PDE7B,Vehicle,OCI-P5x (serous),1,50.4,active
PDE7B,Vehicle,OCI-P5x (serous),2,72.3,active
PDE7B,Vehicle,OCI-P5x (serous),3,71.4,active
ERCC6L,Rucaparib,OCI-C5x (clear cell),1,55.8,active
ERCC6L,Rucaparib,OCI-C5x (clear cell),2,47.6,active
ERCC6L,Rucaparib,OCI-C5x (clear cell),3,53.5,active
ERCC6L,Rucaparib,OCI-P5x (serous),1,98.5,inactive
ERCC6L,Rucaparib,OCI-P5x (serous),2,96.6,inactive
ERCC6L,Rucaparib,OCI-P5x (serous),3,76.3,active
ERCC6L,Vehicle,OCI-C5x (clear cell),1,74.7,active
ERCC6L,Vehicle,OCI-C5x (clear cell),2,54.3,active
ERCC6L,Vehicle,OCI-C5x (clear cell),3,42.1,active
ERCC6L,Vehicle,OCI-P5x (serous),1,83.4,inactive
ERCC6L,Vehicle,OCI-P5x (serous),2,86.9,inactive
ERCC6L,Vehicle,OCI-P5x (serous),3,78,active
BDP1,Rucaparib,OCI-C5x (clear cell),1,44.1,active
BDP1,Rucaparib,OCI-C5x (clear cell),2,59.8,active
BDP1,Rucaparib,OCI-C5x (clear cell),3,46.1,active
BDP1,Rucaparib,OCI-P5x (serous),1,77.6,active
BDP1,Rucaparib,OCI-P5x (serous),2,79,active
BDP1,Rucaparib,OCI-P5x (serous),3,81.2,inactive
BDP1,Vehicle,OCI-C5x (clear cell),1,35.1,active
BDP1,Vehicle,OCI-C5x (clear cell),2,32.5,active
BDP1,Vehicle,OCI-C5x (clear cell),3,52.5,active
BDP1,Vehicle,OCI-P5x (serous),1,61.3,active
BDP1,Vehicle,OCI-P5x (serous),2,69.8,active
BDP1,Vehicle,OCI-P5x (serous),3,71.9,active

Single entries from the list.
ERCC6L, rucaparib or vehicle Rucaparib, cell line OCI-P5x (serous), technical replicate 3, Outcome → active
Value for EPHA7, rucaparib or vehicle Vehicle, cell line OCI-P5x (serous), technical replicate 2 under “Outcome”: inactive
EPHA7, rucaparib or vehicle Rucaparib, cell line OCI-C5x (clear cell), technical replicate 3, viability, normalised (%): 59
